Measured values from PMC10497417.
Changes are numbered by the printed parent chain. No constants are given. Whether binding was seen depends on the method and setting. In cells and extracts the contact can be indirect. Here binding means that the protein was enriched with, or labelled near, the bait; the list need not be complete. For some assays here: No binding means not detected with the bait. Sequences can lack the tags named with a protein.

Protein sequences, listed by entry. Tags and fused reporters are not part of them.
UniProt P63279: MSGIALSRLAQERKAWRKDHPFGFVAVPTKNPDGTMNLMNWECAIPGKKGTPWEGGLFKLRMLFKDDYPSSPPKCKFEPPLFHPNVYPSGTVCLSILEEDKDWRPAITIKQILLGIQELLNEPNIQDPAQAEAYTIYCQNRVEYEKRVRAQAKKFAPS

Key:
[1] = target: T1, GFP-NIP45 WT (U2OS Flp-In T-REx NIP45-KO cells) (human) (UniProt Q8NCF5); experiment: affinity purification with mass spectrometry; GFP pulldowns from U2OS Flp-In T-REx NIP45-KO cells stably expressing GFP-NIP45 wt or SLD2*, LC-MS/MS, n = 4 biological replicates
T1 sequence: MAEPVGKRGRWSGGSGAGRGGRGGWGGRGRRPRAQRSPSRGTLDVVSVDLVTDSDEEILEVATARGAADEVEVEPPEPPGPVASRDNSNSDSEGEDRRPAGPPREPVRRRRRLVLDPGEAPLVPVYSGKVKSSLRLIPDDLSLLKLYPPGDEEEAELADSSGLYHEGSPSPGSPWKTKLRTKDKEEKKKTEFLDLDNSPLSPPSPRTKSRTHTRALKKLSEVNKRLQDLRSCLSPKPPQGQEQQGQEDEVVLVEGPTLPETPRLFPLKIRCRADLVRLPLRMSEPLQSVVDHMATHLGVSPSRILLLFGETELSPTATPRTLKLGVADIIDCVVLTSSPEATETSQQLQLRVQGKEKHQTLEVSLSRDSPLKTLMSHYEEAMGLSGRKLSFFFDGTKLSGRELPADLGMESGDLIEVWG

[2] = target: T2, GFP-NIP45 SLD2* (D394R) (human) (UniProt Q8NCF5); experiment: as above
T2 sequence: T1 sequence with D394R

SUMO E2 enzyme UBC9, endogenous (from UniProt P63279 1-158)
binding [1]: binds | binding [2]: no binding
